The source of these data is the supplement of paper PMC10373366.

Where a name gives a salt, the structure may show the parent alone. The list shows a part of the results. Most values come without repeats; read them as rough.

The test system of one assay is A2780. Put plainly: cell growth inhibition ratio vs untreated control (CCK8); higher = stronger inhibition of cell viability. The note with it: 10 µM; 48 h. As for the experimental part:
(§1)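 Natural product library (Topscience) screened at 10 µM final concentration for 48 h on ovarian cancer A2780 cells and patient-derived ovarian cancer cells (PDC) in 96-well plates; viability read by CCK8 and reported as inhibition ratio (%) relative to untreated control. Single-dose primary screen.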

Assay [1] has as its system patient-derived ovarian cancer cells (PDC). The assay is described as above. The conditions noted are these: 10 µM; 48 h. The method, then: as §1

Consider `COc1cc(CO)ccc1O` [Vanillyl Alcohol], for which the “cell growth inhibition ratio” value with A2780 worked out at 1.1%; in assay [1], 12%.

As for `COc1ccc2ccc(=O)oc2c1CC=C(C)C` [Osthole], the “cell growth inhibition ratio” value was -3.45% in the assay on A2780 and -6.85% in assay [1].

On to `C=C(C)[C@@H]1CC=C(CO)CC1` [Perillyl alcohol], for which the “cell growth inhibition ratio” value with A2780 is 2.52%; in assay [1], 9.19%.

On to `O=C(O)c1ccc(O)cc1` [4-Hydroxybenzoic acid], for which the “cell growth inhibition ratio” value with A2780 is -8.56%; in assay [1], 7.49%.

As to `Cc1ccc(C(C)C)cc2c(C)ccc1-2` [Guaiazulene], the “cell growth inhibition ratio” value was 1.18% in the assay with A2780 and -0.322% in assay [1].

`COc1cc2c(cc1O)CC[n+]1cc3c(OC)c(OC)ccc3cc1-2` [Jatrorrhizine hydrochloride]: the entries for the “cell growth inhibition ratio” value (with A2780; in assay [1]) were -19.6% and -3.94%, respectively.

`COc1cc(CNC(=O)CCCCCCC(C)C)ccc1O` [Dihydrocapsaicin]: the “cell growth inhibition ratio” value with A2780 is 17.4%; in assay [1] it was -2.7%.

Consider `O=c1c(O)c(-c2ccc(O)c(O)c2)oc2cc(O)cc(O)c12` [Quercetin], for which the “cell growth inhibition ratio” value in the assay on A2780 is -42%; in assay [1] it was -5.05%.

Take `C[C@H](CCC(=O)O)[C@H]1CC[C@H]2[C@@H]3[C@H](O)C[C@@H]4C[C@H](O)CC[C@]4(C)[C@H]3C[C@H](O)[C@]12C` [Cholic Acid]: the “cell growth inhibition ratio” value was 3.15% in the assay on A2780 and -16.4% in assay [1].

For the compound `CC1C(=O)OC2C(O)C34C5CC(C(C)(C)C)C36C(OC(=O)C6O)OC4(C(=O)O5)C12O` (stereo not given) [Ginkgolide B], the “cell growth inhibition ratio” value is 13.2% with A2780 and -3.87% in assay [1].

Take `CCOC(=O)c1c(C)cc(O)cc1O` [Orsellinic acid ethyl ester]: the “cell growth inhibition ratio” value was 0.0873% in the assay on A2780 and -18.7% in assay [1].

As for `CCc1c2c(nc3ccc(O)cc13)-c1cc3c(c(=O)n1C2)COC(=O)[C@]3(O)CC`, the “cell growth inhibition ratio” value in the assay on A2780 was 86.2%; in assay [1] it was 72.9%.

With `O=c1ccc2ccc(O)c(O)c2o1` [Daphnetin], the “cell growth inhibition ratio” value is -9.81% in the assay on A2780 and -0.387% in assay [1].

As to `COc1ccc2c(C)cc(=O)oc2c1` [7-Methoxy-4-methylcoumarin], the figures for the “cell growth inhibition ratio” value (in the assay on A2780; in assay [1]) were 2.19% and -8.88%, respectively.

For `CC(=O)OC1CC2CCC1(C)C2(C)C` (stereo not given) [Bornyl acetate], the “cell growth inhibition ratio” value in the assay on A2780 is 11.4%; in assay [1] it was -2.26%.

For the compound `CC(C)(CO)[C@@H](O)C(=O)NCCC(=O)NCCSSCCNC(=O)CCNC(=O)[C@H](O)C(C)(C)CO` [D-Pantethine], the “cell growth inhibition ratio” value was 16.7% in the assay with A2780 and -1.68% in assay [1].

In the case of `COC(=O)c1ccc(O)c(O)c1` [Methyl protocatechuate], the entries for the “cell growth inhibition ratio” value (in the assay with A2780; in assay [1]) were -16.7% and -10.1%, respectively.

For `C[C@H](CCC(=O)O)[C@H]1CC[C@H]2[C@@H]3CC[C@@H]4C[C@H](O)CC[C@]4(C)[C@H]3CC[C@]12C` [Lithocholic acid], the “cell growth inhibition ratio” value was 6.16% with A2780 and -15.4% in assay [1].

Consider `O=C(O)c1cc(=O)[nH]c(=O)[nH]1` [Orotic acid], for which the “cell growth inhibition ratio” value in the assay with A2780 was 5.83%; in assay [1] it was -5.72%.

As for `CC1CCC2(O)C(C)(C)C3CCC2(C)C1C3` (stereo not given) [Patchouli alcohol], the entries for the “cell growth inhibition ratio” value (with A2780; in assay [1]) were 4.13% and -3.96%, respectively.

With `O=c1c(O)c(-c2ccc(O)cc2O)oc2cc(O)cc(O)c12` [Morin], the “cell growth inhibition ratio” value in the assay with A2780 was 5.81%; in assay [1], -7.29%.

Regarding `C[C@H]1O[C@@H](O[C@H]2CC[C@@]3(C)[C@@H](CC[C@]4(C)[C@@H]3C=C[C@]35OC[C@@]6(CCC(C)(C)C[C@H]63)[C@H](O)C[C@]54C)[C@]2(C)CO)[C@H](O)[C@@H](O[C@@H]2O[C@H](CO)[C@@H](O)[C@H](O)[C@H]2O)[C@H]1O` [Saikosaponin D], the “cell growth inhibition ratio” value in the assay with A2780 stood at 91.8%; in assay [1], 91.9%.

In the case of `O=C(O)c1ccc(O)c(O)c1` [Protocatechuic acid], the results for the “cell growth inhibition ratio” value (with A2780; in assay [1]) were 4.08% and 6.63%, respectively.

As to `C[C@@H]1O[C@@H](OC[C@H]2O[C@@H](Oc3cc(O)c4c(=O)cc(-c5ccc(O)cc5)oc4c3)[C@H](O[C@@H]3O[C@@H](C)[C@H](O)[C@@H](O)[C@H]3O)[C@@H](O)[C@@H]2O)[C@H](O)[C@H](O)[C@H]1O` [Ligustroflavone], the “cell growth inhibition ratio” value in the assay on A2780 was 5.92%; in assay [1], -1.58%.

`O=C1C[C@@H](c2ccc(O)cc2)Oc2cc(O)cc(O)c21` [Naringenin]: the “cell growth inhibition ratio” value was -0.673% with A2780 and -9.11% in assay [1].

With `CN1C(=O)CC[C@H]1c1cccnc1` [(-)-Cotinine], the “cell growth inhibition ratio” value is 15.2% in the assay on A2780 and -2.07% in assay [1].

On to `COc1cc(CCC(C)=O)ccc1O` [Vanillylacetone], for which the “cell growth inhibition ratio” value with A2780 is 13%; in assay [1], 8.43%.

`COc1cc(-c2oc3cc(O)cc(O)c3c(=O)c2O)ccc1O` [Isorhamnetin]: the results for the “cell growth inhibition ratio” value (in the assay with A2780; in assay [1]) were 16.9% and 1.45%, respectively.

Regarding `COc1cc2c(cc1OC)[C@@H]1Cc3ccc(OC)c(OC)c3CN1CC2` [Tetrahydropalmatine], the “cell growth inhibition ratio” value with A2780 is 5.43%; in assay [1], -8.5%.

Regarding `OC[C@H]1O[C@H](O)[C@H](O)[C@@H](O)[C@H]1O` [Alpha-D-galactose], the figures for the “cell growth inhibition ratio” value (with A2780; in assay [1]) were -0.586% and 1.02%, respectively.
